This is one part of the list.
compound: Cc1ncc(-c2ccnc(Nc3ccc(S(C)(=O)=O)cc3)n2)n1C(C)C; assay: log2 fold change, soluble protein after heating vs DMSO (PISA); higher = thermal stabilisation; K562 cells, 10 uM, 30 min; active = over 0.2 and 3.5 SD of the protein, either way, in both replicates (recomputed)
How it was run: (§1)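 Aliquots of K562 cells (2×10^6 cells/mL) treated with 10 μM compound for 30 min were heated for 3 min over 48°C-58°C. After pooling and extraction in PBS with 0.5% NP-40 at 4°C, soluble protein from a 21,000xg, 90 min spin was quantified by TMTpro 16plex LC-MS/MS with channel sums equalised. Thermal stability is expressed against control samples, from duplicates, as a log2 fold change.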

Chains of the proteins cited; added tags and fusions are not shown. Lines headed by an entry give the natural chain unless they say otherwise; changes in a name come on top.
UniProt Q8NCW6: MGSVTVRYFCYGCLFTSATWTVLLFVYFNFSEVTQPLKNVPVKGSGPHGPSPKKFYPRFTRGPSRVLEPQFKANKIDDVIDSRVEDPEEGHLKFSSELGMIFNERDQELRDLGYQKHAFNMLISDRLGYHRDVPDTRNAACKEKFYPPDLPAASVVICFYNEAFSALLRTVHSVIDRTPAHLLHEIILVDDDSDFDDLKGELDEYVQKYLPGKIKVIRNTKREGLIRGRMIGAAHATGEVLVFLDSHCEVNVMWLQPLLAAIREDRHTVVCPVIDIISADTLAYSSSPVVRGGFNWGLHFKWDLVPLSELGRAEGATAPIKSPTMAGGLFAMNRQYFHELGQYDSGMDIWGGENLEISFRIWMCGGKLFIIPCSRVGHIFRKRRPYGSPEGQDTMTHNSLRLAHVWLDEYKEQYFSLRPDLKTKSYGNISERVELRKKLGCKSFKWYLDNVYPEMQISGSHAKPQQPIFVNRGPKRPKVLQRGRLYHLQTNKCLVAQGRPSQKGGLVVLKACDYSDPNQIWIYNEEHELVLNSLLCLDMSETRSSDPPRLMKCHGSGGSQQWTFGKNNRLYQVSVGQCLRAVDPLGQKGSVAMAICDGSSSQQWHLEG
UniProt Q8WXD5: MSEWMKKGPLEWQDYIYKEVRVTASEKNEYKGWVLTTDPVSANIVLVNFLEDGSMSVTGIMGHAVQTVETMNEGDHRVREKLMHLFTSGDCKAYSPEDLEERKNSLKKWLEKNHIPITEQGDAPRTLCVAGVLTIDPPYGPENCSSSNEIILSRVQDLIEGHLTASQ
UniProt P04066: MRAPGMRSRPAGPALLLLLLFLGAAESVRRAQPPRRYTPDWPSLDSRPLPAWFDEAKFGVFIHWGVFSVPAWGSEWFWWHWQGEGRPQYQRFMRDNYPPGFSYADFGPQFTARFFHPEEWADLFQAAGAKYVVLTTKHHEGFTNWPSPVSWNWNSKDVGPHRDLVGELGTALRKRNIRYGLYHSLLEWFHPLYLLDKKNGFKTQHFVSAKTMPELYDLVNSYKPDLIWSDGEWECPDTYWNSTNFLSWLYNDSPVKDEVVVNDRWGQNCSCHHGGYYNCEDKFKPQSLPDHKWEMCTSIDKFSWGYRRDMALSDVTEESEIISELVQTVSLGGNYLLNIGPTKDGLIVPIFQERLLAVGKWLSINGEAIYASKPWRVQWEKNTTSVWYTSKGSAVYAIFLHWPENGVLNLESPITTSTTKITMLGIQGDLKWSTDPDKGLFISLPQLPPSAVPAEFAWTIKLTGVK
UniProt P48507: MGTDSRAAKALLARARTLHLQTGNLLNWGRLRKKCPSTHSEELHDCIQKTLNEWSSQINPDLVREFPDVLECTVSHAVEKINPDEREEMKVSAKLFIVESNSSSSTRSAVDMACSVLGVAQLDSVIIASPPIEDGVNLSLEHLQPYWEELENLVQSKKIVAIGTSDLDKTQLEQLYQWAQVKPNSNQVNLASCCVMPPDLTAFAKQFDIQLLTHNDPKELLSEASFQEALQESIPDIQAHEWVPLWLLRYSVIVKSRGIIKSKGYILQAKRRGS
UniProt Q06546: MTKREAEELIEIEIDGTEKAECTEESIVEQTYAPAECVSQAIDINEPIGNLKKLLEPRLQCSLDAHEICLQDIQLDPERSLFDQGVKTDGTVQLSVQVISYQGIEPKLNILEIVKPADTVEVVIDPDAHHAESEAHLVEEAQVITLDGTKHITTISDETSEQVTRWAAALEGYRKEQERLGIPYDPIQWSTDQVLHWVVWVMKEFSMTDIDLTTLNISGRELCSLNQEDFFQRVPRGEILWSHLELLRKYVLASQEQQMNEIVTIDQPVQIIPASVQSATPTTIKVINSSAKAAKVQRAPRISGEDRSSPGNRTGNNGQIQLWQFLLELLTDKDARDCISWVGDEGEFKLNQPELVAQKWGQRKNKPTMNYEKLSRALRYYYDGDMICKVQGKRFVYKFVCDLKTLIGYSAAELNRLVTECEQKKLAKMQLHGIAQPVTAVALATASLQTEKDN
UniProt Q8NB37: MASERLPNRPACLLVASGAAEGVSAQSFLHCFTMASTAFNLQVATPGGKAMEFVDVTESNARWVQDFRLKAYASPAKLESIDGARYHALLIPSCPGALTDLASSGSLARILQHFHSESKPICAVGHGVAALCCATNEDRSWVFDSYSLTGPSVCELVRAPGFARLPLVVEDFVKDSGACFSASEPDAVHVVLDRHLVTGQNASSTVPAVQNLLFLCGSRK
UniProt Q8N2G8: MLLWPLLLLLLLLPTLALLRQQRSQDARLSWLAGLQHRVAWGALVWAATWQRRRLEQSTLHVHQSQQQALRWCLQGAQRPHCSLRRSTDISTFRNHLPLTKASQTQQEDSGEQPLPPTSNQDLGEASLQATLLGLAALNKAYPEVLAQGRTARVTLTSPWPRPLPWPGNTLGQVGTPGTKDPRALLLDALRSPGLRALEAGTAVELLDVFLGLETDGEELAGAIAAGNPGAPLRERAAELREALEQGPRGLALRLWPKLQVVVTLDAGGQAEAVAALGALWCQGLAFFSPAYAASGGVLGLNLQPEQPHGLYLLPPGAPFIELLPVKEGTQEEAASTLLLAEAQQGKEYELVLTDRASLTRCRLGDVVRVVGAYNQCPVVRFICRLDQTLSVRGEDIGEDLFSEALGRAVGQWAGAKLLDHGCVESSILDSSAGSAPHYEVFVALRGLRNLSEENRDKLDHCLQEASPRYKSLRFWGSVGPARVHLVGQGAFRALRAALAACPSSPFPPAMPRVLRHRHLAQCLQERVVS
UniProt Q10472: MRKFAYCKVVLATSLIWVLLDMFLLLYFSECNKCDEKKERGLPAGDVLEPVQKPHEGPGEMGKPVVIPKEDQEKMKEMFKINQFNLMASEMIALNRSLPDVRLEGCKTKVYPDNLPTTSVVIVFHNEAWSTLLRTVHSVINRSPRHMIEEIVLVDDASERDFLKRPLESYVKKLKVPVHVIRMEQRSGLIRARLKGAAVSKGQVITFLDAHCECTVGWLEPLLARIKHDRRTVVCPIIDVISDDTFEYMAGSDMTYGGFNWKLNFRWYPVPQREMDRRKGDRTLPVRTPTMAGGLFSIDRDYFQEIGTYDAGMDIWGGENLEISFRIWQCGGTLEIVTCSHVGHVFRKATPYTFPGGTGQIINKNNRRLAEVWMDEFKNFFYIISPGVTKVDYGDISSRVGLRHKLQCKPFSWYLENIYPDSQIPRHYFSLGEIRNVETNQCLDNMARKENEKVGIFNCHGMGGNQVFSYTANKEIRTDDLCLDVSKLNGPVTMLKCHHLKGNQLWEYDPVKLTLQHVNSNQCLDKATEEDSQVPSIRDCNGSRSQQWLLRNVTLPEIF
UniProt Q9H0R8, whole entry, looked up: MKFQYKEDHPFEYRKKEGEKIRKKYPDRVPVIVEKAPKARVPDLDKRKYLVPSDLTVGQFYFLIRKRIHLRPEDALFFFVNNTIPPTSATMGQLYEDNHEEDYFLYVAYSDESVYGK
UniProt Q8TEQ6: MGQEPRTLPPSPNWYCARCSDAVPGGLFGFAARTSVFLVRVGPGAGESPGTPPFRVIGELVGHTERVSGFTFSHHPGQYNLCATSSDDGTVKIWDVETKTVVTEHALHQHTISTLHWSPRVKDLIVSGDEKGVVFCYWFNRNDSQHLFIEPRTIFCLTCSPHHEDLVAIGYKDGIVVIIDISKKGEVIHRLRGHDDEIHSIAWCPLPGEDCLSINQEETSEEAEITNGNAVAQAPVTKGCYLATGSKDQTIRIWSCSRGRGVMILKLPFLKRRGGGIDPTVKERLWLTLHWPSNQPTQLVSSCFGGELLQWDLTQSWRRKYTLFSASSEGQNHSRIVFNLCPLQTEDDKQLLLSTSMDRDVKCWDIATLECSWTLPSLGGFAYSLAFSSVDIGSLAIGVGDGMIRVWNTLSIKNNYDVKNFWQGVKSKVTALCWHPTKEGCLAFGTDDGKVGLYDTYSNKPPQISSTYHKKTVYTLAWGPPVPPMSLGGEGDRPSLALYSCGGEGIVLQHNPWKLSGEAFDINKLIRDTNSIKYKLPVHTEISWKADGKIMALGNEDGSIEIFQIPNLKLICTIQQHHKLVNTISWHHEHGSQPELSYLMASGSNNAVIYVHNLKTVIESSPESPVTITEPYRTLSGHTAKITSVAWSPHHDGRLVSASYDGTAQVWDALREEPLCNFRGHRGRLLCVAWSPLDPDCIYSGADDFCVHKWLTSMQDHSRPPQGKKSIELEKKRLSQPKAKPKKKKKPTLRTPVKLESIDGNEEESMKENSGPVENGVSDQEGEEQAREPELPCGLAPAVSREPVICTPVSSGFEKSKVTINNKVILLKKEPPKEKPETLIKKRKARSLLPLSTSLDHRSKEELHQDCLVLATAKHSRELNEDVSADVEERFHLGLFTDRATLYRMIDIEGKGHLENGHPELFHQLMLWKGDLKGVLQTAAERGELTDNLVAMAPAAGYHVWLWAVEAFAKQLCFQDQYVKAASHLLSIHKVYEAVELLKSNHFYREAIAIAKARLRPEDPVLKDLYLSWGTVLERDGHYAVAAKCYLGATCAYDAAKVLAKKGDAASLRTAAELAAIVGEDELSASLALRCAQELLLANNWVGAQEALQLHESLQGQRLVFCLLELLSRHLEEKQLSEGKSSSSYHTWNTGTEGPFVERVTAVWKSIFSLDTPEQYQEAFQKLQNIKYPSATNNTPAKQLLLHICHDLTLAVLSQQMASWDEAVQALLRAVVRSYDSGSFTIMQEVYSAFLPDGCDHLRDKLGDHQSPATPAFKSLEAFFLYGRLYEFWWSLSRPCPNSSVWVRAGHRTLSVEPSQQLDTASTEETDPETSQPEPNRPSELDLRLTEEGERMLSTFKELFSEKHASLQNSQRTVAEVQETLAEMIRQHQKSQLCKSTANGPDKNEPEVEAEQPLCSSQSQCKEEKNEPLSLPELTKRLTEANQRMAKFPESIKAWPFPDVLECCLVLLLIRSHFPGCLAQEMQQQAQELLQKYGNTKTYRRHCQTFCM
UniProt Q10471: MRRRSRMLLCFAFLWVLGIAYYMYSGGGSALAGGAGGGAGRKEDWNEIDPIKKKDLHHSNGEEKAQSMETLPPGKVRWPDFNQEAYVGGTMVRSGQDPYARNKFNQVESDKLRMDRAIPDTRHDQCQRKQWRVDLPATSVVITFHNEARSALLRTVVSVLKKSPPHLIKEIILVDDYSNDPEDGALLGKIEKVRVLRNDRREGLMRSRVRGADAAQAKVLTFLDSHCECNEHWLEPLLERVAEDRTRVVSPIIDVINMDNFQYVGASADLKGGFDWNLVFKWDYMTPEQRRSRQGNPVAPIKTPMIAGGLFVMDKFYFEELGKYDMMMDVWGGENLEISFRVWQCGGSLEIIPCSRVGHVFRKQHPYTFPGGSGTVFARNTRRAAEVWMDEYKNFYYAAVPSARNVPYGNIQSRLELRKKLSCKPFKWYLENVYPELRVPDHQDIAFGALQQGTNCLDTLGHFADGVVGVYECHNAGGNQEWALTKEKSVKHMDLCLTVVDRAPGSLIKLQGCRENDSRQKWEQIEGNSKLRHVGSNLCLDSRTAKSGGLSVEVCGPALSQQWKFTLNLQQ
UniProt P15976: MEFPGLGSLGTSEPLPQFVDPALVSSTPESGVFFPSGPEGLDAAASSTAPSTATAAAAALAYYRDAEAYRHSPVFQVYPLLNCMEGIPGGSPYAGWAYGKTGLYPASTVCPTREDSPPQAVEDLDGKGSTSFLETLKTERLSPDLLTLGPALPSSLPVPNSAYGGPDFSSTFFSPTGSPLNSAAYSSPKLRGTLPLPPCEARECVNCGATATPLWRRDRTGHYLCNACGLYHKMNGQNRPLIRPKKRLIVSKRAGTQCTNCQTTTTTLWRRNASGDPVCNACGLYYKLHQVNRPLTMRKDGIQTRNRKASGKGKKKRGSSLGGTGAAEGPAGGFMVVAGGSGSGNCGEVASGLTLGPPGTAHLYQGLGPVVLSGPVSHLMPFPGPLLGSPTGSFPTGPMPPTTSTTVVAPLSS
UniProt P0CL80: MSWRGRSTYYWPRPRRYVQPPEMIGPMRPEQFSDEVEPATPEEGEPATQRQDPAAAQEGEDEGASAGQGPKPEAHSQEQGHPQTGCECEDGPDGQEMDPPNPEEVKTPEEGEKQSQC

Row | Target | log2 fold change
1 | GALNT11 (UniProt Q8NCW6) | inactive: 0.076
2 | GEMIN6 (UniProt Q8WXD5) | inactive: -0.022
3 | GALNT10 (UniProt Q86SR1) | inactive: 0.155
4 | FOSL1 (UniProt P15407) | inactive: 0.038
5 | GALNT4 (UniProt Q8N4A0) | inactive: 0.042
6 | FNTB (UniProt P49356) | inactive: -0.056
7 | FOXK1 (UniProt P85037) | active: -1.19
8 | GAPVD1 isoform 6 (UniProt Q14C86) | inactive: -0.017
9 | FUCA1 (UniProt P04066) | inactive: -0.014
10 | GCSH (UniProt P23434) | inactive: -0.026
11 | GCLM (UniProt P48507) | inactive: 0.019
12 | GALK1 isoform 2 (UniProt P51570) | inactive: -0.015
13 | GCDH (UniProt Q92947) | inactive: -0.001
14 | GDPD1 (UniProt Q8N9F7) | inactive: -0.045
15 | GEMIN2 (UniProt O14893) | inactive: -0.027
16 | GABPA (UniProt Q06546) | inactive: -0.026

Row | Target | log2 fold change
17 | GARS1 (UniProt H7C443) | inactive: -0.103
18 | GATD1 (UniProt Q8NB37) | inactive: 0.119
19 | GHDC (UniProt Q8N2G8) | inactive: -0.011
20 | GGT7 (UniProt Q9UJ14) | inactive: -0.03
21 | GALC (UniProt P54803) | inactive: 0.01
22 | GALNT1 (UniProt Q10472) | inactive: 0.142
23 | GABARAPL1 isoform 2 (UniProt Q9H0R8) | inactive: 0.017
24 | GEMIN5 (UniProt Q8TEQ6) | inactive: -0.127
25 | FOPNL (UniProt Q96NB1) | inactive: -0.247
26 | GDI1 (UniProt P31150) | inactive: -0.024
27 | GALNT2 (UniProt Q10471) | inactive: 0.056
28 | GCC2 (UniProt Q8IWJ2) | inactive: 0.119
29 | GATA1 (UniProt P15976) | inactive: -0.008
30 | GAGE12F (UniProt P0CL80) | inactive: -0.015
31 | FUCA2 (UniProt Q9BTY2) | inactive: -0.009
32 | GBF1 (UniProt Q92538) | inactive: -0.001

compound: Cn1cc(-c2ccc3c(c2)CCN3C(=O)Cc2cccc(C(F)(F)F)c2)c2c(N)ncnc21; assay: as above
How it was run: as §1

Row | Target | log2 fold change
33 | GALNT11 (UniProt Q8NCW6) | inactive: 0.069
34 | GEMIN6 (UniProt Q8WXD5) | inactive: 0.018
35 | GALNT10 (UniProt Q86SR1) | inactive: -0.117
36 | FOSL1 (UniProt P15407) | inactive: -0.044
37 | GALNT4 (UniProt Q8N4A0) | inactive: 0.079
38 | FNTB (UniProt P49356) | inactive: 0.196
39 | FPGS (UniProt Q05932) | inactive: -0.133
40 | GAB2 (UniProt Q9UQC2) | inactive: 0.002
41 | FOXK1 (UniProt P85037) | inactive: 0.312
42 | GAPVD1 isoform 6 (UniProt Q14C86) | inactive: -0.043
43 | FUCA1 (UniProt P04066) | inactive: -0.054
44 | GCSH (UniProt P23434) | inactive: 0.016
45 | GCLM (UniProt P48507) | inactive: 0.042
46 | GALK1 isoform 2 (UniProt P51570) | inactive: 0.055
47 | GCDH (UniProt Q92947) | inactive: 0.08
48 | GDPD1 (UniProt Q8N9F7) | inactive: 0.046
49 | GEMIN2 (UniProt O14893) | inactive: -0.039

Row | Target | log2 fold change
50 | GABPA (UniProt Q06546) | inactive: 0.048
51 | GARS1 (UniProt H7C443) | inactive: -0.001
52 | GATD1 (UniProt Q8NB37) | inactive: 0.046
53 | GHDC (UniProt Q8N2G8) | inactive: 0.045
54 | GGT7 (UniProt Q9UJ14) | inactive: 0.063
55 | GALC (UniProt P54803) | inactive: 0.004
56 | GALNT1 (UniProt Q10472) | inactive: 0.1
57 | GABARAPL1 isoform 2 (UniProt Q9H0R8) | inactive: -0.016
58 | GEMIN5 (UniProt Q8TEQ6) | inactive: 0.006
59 | FOPNL (UniProt Q96NB1) | inactive: -0.113
60 | GDI1 (UniProt P31150) | inactive: 0.035
61 | GALNT2 (UniProt Q10471) | inactive: 0.032
62 | GCC2 (UniProt Q8IWJ2) | inactive: -0.032
63 | GATA1 (UniProt P15976) | inactive: -0.084
64 | GAGE12F (UniProt P0CL80) | inactive: -0.004
65 | FUCA2 (UniProt Q9BTY2) | inactive: 0.012
66 | GBF1 (UniProt Q92538) | inactive: -0.079

compound: Cn1cc(-c2ccc3nnc(C(F)(F)c4ccc5ncccc5c4)n3n2)cn1; assay: as above
How it was run: as §1

Row | Target | log2 fold change
67 | GALNT11 (UniProt Q8NCW6) | inactive: -0.031
68 | GEMIN6 (UniProt Q8WXD5) | active: 0.306
69 | GALNT4 (UniProt Q8N4A0) | inactive: -0.005
70 | FNTB (UniProt P49356) | inactive: 0.251
71 | FPGS (UniProt Q05932) | inactive: -0.169
72 | GAB2 (UniProt Q9UQC2) | inactive: 0
73 | FOXK1 (UniProt P85037) | inactive: 0.184
74 | GAPVD1 isoform 6 (UniProt Q14C86) | inactive: -0.016
75 | FUCA1 (UniProt P04066) | inactive: 0.011
76 | GCSH (UniProt P23434) | inactive: 0.016
77 | GCLM (UniProt P48507) | inactive: -0.051
78 | GALK1 isoform 2 (UniProt P51570) | inactive: -0.084
79 | GCDH (UniProt Q92947) | inactive: -0.129
80 | GDPD1 (UniProt Q8N9F7) | inactive: -0.031
81 | GEMIN2 (UniProt O14893) | inactive: -0.095
82 | GABPA (UniProt Q06546) | inactive: 0.111

Row | Target | log2 fold change
83 | GARS1 (UniProt H7C443) | inactive: 0.164
84 | GATD1 (UniProt Q8NB37) | inactive: 0.015
85 | GHDC (UniProt Q8N2G8) | inactive: 0.012
86 | GGT7 (UniProt Q9UJ14) | inactive: 0.018
87 | GALC (UniProt P54803) | inactive: 0.065
88 | GALNT1 (UniProt Q10472) | inactive: -0.093
89 | GABARAPL1 isoform 2 (UniProt Q9H0R8) | inactive: 0.003
90 | GEMIN5 (UniProt Q8TEQ6) | inactive: -0.021
91 | GDI1 (UniProt P31150) | inactive: 0.01
92 | GALNT2 (UniProt Q10471) | inactive: -0.018
93 | GCC2 (UniProt Q8IWJ2) | inactive: 0.02
94 | GATA1 (UniProt P15976) | inactive: -0.017
95 | GAGE12F (UniProt P0CL80) | inactive: -0.035
96 | FUCA2 (UniProt Q9BTY2) | inactive: -0.019
97 | GBF1 (UniProt Q92538) | inactive: -0.049
